In publication PMC3094755:
For part of these data: No signal at the amounts used counts as a negative. For part of these data: Weaker means in comparison with the reference protein, sequence or condition of that experiment. For part of these data: Construct, isoform or probe ends are uncertain for at least one entry. For part of these data: At least one verdict rests on a figure or table, not on a statement of the authors.

Sequences of proteins named here, by UniProt entry; tags and fusion partners are left off. Residues count along the entry.
UniProt P09874, 1-214: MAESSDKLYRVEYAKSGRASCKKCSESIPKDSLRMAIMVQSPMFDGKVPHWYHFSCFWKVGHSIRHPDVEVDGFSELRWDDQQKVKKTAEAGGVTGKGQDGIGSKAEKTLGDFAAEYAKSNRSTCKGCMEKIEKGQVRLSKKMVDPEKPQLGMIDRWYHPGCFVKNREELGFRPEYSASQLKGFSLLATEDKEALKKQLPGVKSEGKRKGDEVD
UniProt P09874, 103-214: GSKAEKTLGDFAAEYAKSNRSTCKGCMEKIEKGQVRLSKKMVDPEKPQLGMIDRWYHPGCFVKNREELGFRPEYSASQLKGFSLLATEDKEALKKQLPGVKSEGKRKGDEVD
UniProt P09874, 103-214 K134I: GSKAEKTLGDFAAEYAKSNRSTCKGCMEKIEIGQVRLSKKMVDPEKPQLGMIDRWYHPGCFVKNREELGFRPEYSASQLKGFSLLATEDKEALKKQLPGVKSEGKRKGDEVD
UniProt P09874, 103-214 G135D: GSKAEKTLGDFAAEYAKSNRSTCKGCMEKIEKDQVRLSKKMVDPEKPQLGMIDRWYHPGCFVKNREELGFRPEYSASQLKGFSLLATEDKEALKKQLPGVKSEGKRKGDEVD

Experiments:
[1] = target: PARP-1 F1+F2 (24-kDa DBD) (Homo sapiens) (UniProt P09874); assay: SV-AUC; conditions: 0.5 uM DNA, 5x protein, no 1:1 complex, residual interaction; circular, nick sealed by T4 DNA ligase; recombinant protein; residues 1-214; label: fluorescein-dT at T8; folded or branched DNA; letters put together from the description
[2] = target: PARP-1 F1+F2 (24-kDa DBD) (Homo sapiens) (UniProt P09874); assay: fluorescence anisotropy; conditions: FA: 50 mM Tris-HCl pH 7, 150 uM ZnSO4, 4 mM DTT, 0-200 mM NaCl, 25 C, 10 nM DNA (mutants 25 nM DNA, 25 mM NaCl), recombinant protein
PARP-1 F2 (Homo sapiens) = PARP-1 F2 (Homo sapiens) (UniProt P09874); assay: fluorescence anisotropy; conditions: weak site (KD2), 5'-phosphate, FA: 50 mM Tris-HCl pH 7, 150 uM ZnSO4, 4 mM DTT, 0-200 mM NaCl, 25 C, 10 nM DNA (mutants 25 nM DNA, 25 mM NaCl), recombinant protein, residues 103-214, label: fluorescein-dT at T8, folded or branched DNA
[3] = target: PARP-1 F2 R122 mutant (Homo sapiens) (UniProt P09874); assay: EMSA; conditions: 400 nM DNA; 5'-phosphate; EMSA: 50 mM Tris-HCl pH 7.4, 150 uM ZnSO4, 4 mM DTT, 10% glycerol, RT incubation, gel at 4 C; recombinant protein; residues 103-214; folded or branched DNA
[4] = target: PARP-1 F2 K141 single mutant (Homo sapiens) (UniProt P09874); assay: EMSA; conditions: 400 nM DNA; 5'-phosphate; EMSA: 50 mM Tris-HCl pH 7.4, 150 uM ZnSO4, 4 mM DTT, 10% glycerol, RT incubation, gel at 4 C; recombinant protein; residues 103-214; folded or branched DNA
[5] = target: PARP-1 F2 K142 single mutant (Homo sapiens) (UniProt P09874); assay: EMSA; conditions: 400 nM DNA; 5'-phosphate; EMSA: 50 mM Tris-HCl pH 7.4, 150 uM ZnSO4, 4 mM DTT, 10% glycerol, RT incubation, gel at 4 C; recombinant protein; residues 103-214; folded or branched DNA
[6] = target: PARP-1 F2 K197 mutant (Homo sapiens) (UniProt P09874); assay: EMSA; conditions: 400 nM DNA, identical to wild type; 5'-phosphate; EMSA: 50 mM Tris-HCl pH 7.4, 150 uM ZnSO4, 4 mM DTT, 10% glycerol, RT incubation, gel at 4 C; recombinant protein; residues 103-214; folded or branched DNA
[7] = target: PARP-1 F2 K119 mutant (Homo sapiens) (UniProt P09874); assay: EMSA; conditions: 400 nM DNA; 5'-phosphate; EMSA: 50 mM Tris-HCl pH 7.4, 150 uM ZnSO4, 4 mM DTT, 10% glycerol, RT incubation, gel at 4 C; recombinant protein; residues 103-214; folded or branched DNA
[8] = target: PARP-1 F2 K131 single mutant (Homo sapiens) (UniProt P09874); assay: EMSA; conditions: 400 nM DNA; 5'-phosphate; EMSA: 50 mM Tris-HCl pH 7.4, 150 uM ZnSO4, 4 mM DTT, 10% glycerol, RT incubation, gel at 4 C; recombinant protein; residues 103-214; folded or branched DNA
[9] = target: PARP-1 F2 S120 mutant (Homo sapiens) (UniProt P09874); assay: EMSA; conditions: 400 nM DNA; 5'-phosphate; EMSA: 50 mM Tris-HCl pH 7.4, 150 uM ZnSO4, 4 mM DTT, 10% glycerol, RT incubation, gel at 4 C; recombinant protein; residues 103-214; folded or branched DNA
[10] = target: PARP-1 F2 W157 mutant (Homo sapiens) (UniProt P09874); assay: EMSA; conditions: 400 nM DNA; 5'-phosphate; EMSA: 50 mM Tris-HCl pH 7.4, 150 uM ZnSO4, 4 mM DTT, 10% glycerol, RT incubation, gel at 4 C; recombinant protein; residues 103-214; folded or branched DNA
[11] = target: PARP-1 F2 K134I (Homo sapiens) (UniProt P09874); assay: EMSA; conditions: 400 nM DNA; 5'-phosphate; EMSA: 50 mM Tris-HCl pH 7.4, 150 uM ZnSO4, 4 mM DTT, 10% glycerol, RT incubation, gel at 4 C; recombinant protein; residues 103-214; folded or branched DNA
[12] = target: PARP-1 F2 G135D (Homo sapiens) (UniProt P09874); assay: EMSA; conditions: 400 nM DNA; 5'-phosphate; EMSA: 50 mM Tris-HCl pH 7.4, 150 uM ZnSO4, 4 mM DTT, 10% glycerol, RT incubation, gel at 4 C; recombinant protein; residues 103-214; folded or branched DNA

**Q.** Does “CGGTCGATCGTAAGATCGACCGGCGCTGGAGCTTGCTCCAGCGC [ligated (circular) 44-nt dumbbell, fluorescein-dT]” bind [1]?
**A.** binds more weakly

**Q.** Does “CGGTCGATCGTAAGATCGACCGGCGCTGGAGCTTGCTCCAGCGC [ligated (circular) 44-nt dumbbell, fluorescein-dT]” bind ([2]; tight site eliminated, circular, nick sealed by T4 DNA ligase, residues 1-214, label: fluorescein-dT at T8, folded or branched DNA, letters put together from the description)?
**A.** binds more weakly

**Q.** What does the source list for “CGGTCGATCGTAAGATCGACCGGCGCTGGAGCTTGCTCCAGCGC [44-nt nicked dumbbell, 5'-phosphate, fluorescein-dT]”?
**A.** Kd ([2]; 100 mM NaCl, nonspecific secondary site (KD2), 5'-phosphate, residues 1-214, label: fluorescein-dT at T8, folded or branched DNA): 2.6 µM; Kd (PARP-1 F2 (Homo sapiens); 50 mM NaCl): 1.7 µM; Kd (PARP-1 F2 (Homo sapiens); 100 mM NaCl): 10.6 µM

**Q.** Does “CGGTCGATCGTAAGATCGACCGTGCGCTGGAGCTTGCTCCAGCGC [45-nt gapped dumbbell, 5'-phosphate]” bind [3]?
**A.** no binding

**Q.** Does “CGGTCGATCGTAAGATCGACCGTGCGCTGGAGCTTGCTCCAGCGC [45-nt gapped dumbbell, 5'-phosphate]” bind [4]?
**A.** binds more weakly

**Q.** Does “CGGTCGATCGTAAGATCGACCGTGCGCTGGAGCTTGCTCCAGCGC [45-nt gapped dumbbell, 5'-phosphate]” bind [5]?
**A.** binds more weakly

**Q.** Does “CGGTCGATCGTAAGATCGACCGTGCGCTGGAGCTTGCTCCAGCGC [45-nt gapped dumbbell, 5'-phosphate]” bind [6]?
**A.** binds

**Q.** Does “CGGTCGATCGTAAGATCGACCGTGCGCTGGAGCTTGCTCCAGCGC [45-nt gapped dumbbell, 5'-phosphate]” bind [7]?
**A.** no binding

**Q.** Does “CGGTCGATCGTAAGATCGACCGTGCGCTGGAGCTTGCTCCAGCGC [45-nt gapped dumbbell, 5'-phosphate]” bind [8]?
**A.** binds more weakly

**Q.** Does “CGGTCGATCGTAAGATCGACCGTGCGCTGGAGCTTGCTCCAGCGC [45-nt gapped dumbbell, 5'-phosphate]” bind [9]?
**A.** no binding

**Q.** Does “CGGTCGATCGTAAGATCGACCGTGCGCTGGAGCTTGCTCCAGCGC [45-nt gapped dumbbell, 5'-phosphate]” bind [10]?
**A.** no binding

**Q.** Does “CGGTCGATCGTAAGATCGACCGTGCGCTGGAGCTTGCTCCAGCGC [45-nt gapped dumbbell, 5'-phosphate]” bind [11]?
**A.** binds more weakly

**Q.** Does “CGGTCGATCGTAAGATCGACCGTGCGCTGGAGCTTGCTCCAGCGC [45-nt gapped dumbbell, 5'-phosphate]” bind [12]?
**A.** binds more weakly

**Q.** Does “CGGTCGATCGTAAGATCGACCGCGGTCGATCGTAAGATCGACCG” bind ([2]; values in Supp. Table 1, not in material, 5'-phosphate, residues 1-214, label: fluorescein-dT at T8 and T30, folded or branched DNA)?
**A.** binds

**Q.** Does “CGGTCGATCGTAAGATCGACCGCGGTCGATCGTAAGATCGACCG” bind ([2]; 150 mM NaCl, circular, nick sealed by T4 DNA ligase, residues 1-214, label: fluorescein-dT at T8 and T30, folded or branched DNA, letters put together from the description)?
**A.** no binding

**Q.** Does “CGGTCGATCGTAAGATCGACCGCGGTCGATCGTAAGATCGACCG” bind ([2]; 200 mM NaCl, circular, nick sealed by T4 DNA ligase, residues 1-214, label: fluorescein-dT at T8 and T30, folded or branched DNA, letters put together from the description)?
**A.** no binding
